These results are taken from the supplement of paper PMC10849652.

By UniProt entry, the sequences of proteins in these tests, tags left out. Where a name states a change or a piece, a line headed by the entry shows the natural chain unless it says otherwise.
UniProt Q9UK53: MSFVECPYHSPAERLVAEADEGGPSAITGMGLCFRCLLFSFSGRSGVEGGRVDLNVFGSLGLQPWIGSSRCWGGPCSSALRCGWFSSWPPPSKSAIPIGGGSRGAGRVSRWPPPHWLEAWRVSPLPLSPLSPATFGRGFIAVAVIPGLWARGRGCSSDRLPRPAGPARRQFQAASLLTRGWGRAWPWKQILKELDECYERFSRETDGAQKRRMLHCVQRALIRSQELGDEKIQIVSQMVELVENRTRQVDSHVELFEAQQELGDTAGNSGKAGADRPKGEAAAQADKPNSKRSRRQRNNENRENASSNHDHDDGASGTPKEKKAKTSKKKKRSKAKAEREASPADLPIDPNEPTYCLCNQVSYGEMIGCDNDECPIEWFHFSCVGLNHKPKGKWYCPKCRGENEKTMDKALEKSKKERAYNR
UniProt Q8WYH8, whole entry, looked up: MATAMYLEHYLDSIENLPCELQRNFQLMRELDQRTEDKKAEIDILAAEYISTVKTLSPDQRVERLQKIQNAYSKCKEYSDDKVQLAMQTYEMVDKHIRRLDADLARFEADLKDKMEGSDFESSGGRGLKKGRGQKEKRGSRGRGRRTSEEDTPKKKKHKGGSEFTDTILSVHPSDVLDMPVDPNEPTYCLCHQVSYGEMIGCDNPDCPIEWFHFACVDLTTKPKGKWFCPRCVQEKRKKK
UniProt P22692: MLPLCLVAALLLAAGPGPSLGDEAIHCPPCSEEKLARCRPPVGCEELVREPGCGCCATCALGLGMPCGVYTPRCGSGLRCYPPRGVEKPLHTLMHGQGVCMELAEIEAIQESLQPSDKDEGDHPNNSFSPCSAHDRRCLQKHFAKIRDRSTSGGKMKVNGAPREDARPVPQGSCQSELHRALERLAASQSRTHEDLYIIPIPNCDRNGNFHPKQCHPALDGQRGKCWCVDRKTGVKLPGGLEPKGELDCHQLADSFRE
UniProt O14879: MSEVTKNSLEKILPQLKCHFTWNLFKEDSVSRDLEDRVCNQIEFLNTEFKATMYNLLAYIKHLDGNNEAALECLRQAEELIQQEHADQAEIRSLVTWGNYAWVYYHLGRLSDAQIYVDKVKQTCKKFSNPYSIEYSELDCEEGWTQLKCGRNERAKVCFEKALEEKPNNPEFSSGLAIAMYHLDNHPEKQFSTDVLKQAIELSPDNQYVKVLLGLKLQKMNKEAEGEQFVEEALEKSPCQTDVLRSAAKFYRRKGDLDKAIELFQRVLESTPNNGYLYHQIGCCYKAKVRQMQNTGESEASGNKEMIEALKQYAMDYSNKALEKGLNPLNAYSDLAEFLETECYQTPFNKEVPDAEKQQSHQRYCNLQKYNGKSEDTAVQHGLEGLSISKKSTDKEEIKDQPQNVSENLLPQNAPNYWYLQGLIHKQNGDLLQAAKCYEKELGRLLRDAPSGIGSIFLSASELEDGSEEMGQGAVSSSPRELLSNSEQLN
UniProt Q9NWB7: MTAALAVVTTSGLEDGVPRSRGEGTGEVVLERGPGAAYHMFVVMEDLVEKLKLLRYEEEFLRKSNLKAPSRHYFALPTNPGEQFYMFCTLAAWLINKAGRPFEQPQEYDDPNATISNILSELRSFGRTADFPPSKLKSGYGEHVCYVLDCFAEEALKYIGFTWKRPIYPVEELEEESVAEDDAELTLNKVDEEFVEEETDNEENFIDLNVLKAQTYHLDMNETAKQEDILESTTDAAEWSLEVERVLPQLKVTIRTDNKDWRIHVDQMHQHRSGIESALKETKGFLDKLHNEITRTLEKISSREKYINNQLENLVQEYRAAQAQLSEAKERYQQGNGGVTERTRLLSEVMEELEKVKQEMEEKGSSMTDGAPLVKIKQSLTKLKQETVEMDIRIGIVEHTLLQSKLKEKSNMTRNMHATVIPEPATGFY
UniProt O60725, whole entry, looked up: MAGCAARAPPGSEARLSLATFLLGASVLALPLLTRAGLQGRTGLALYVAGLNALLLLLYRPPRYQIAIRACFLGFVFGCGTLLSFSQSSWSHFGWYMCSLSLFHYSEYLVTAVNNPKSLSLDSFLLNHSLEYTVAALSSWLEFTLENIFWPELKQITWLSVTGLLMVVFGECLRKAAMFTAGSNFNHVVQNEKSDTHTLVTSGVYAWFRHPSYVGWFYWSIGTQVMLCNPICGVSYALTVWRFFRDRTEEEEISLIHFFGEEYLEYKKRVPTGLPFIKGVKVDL
UniProt A2RU49: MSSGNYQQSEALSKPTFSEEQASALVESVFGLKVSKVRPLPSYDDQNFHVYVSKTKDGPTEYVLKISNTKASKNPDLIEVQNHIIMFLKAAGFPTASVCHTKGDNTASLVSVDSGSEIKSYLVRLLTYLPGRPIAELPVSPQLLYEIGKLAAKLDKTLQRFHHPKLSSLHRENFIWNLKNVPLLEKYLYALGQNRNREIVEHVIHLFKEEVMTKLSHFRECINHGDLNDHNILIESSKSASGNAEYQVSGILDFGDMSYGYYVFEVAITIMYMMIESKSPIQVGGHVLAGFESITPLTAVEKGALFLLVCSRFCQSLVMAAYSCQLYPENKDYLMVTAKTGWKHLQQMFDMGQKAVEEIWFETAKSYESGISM
IGKV3D-7, A0A0C4DH55, UniProt A0A0C4DH55, whole entry, looked up: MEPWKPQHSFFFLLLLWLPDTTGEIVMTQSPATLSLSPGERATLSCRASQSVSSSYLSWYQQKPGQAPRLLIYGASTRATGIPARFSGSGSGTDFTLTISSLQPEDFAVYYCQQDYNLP
UniProt Q96EW2: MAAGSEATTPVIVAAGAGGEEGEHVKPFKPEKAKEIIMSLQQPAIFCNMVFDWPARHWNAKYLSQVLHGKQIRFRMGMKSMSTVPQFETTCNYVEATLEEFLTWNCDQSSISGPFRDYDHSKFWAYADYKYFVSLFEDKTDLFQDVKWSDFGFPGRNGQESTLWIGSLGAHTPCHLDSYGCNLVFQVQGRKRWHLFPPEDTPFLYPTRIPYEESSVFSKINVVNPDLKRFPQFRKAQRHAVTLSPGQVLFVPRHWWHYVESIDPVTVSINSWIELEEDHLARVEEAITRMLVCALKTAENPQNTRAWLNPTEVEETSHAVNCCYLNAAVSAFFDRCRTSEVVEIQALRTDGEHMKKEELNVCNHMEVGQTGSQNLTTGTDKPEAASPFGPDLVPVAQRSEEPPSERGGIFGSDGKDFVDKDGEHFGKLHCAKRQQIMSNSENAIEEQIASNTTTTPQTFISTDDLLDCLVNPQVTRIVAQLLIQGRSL
UniProt Q9H7X7: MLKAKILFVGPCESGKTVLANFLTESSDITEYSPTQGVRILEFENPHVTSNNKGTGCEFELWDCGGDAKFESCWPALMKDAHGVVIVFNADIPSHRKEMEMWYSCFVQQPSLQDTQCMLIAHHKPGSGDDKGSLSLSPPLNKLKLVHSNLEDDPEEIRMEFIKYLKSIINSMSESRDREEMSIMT
UniProt Q8NBZ0, whole entry, looked up: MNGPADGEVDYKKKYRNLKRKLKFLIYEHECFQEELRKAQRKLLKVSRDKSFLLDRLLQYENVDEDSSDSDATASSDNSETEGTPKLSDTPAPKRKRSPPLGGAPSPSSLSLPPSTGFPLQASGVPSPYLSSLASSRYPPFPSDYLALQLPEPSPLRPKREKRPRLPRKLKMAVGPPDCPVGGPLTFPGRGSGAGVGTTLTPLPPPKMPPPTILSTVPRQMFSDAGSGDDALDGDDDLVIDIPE
UniProt Q96LU5: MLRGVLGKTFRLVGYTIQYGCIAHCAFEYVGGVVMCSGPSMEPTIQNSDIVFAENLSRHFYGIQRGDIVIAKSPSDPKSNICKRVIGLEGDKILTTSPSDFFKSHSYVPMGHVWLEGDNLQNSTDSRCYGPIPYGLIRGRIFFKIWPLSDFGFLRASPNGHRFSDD
UniProt Q9HBG6: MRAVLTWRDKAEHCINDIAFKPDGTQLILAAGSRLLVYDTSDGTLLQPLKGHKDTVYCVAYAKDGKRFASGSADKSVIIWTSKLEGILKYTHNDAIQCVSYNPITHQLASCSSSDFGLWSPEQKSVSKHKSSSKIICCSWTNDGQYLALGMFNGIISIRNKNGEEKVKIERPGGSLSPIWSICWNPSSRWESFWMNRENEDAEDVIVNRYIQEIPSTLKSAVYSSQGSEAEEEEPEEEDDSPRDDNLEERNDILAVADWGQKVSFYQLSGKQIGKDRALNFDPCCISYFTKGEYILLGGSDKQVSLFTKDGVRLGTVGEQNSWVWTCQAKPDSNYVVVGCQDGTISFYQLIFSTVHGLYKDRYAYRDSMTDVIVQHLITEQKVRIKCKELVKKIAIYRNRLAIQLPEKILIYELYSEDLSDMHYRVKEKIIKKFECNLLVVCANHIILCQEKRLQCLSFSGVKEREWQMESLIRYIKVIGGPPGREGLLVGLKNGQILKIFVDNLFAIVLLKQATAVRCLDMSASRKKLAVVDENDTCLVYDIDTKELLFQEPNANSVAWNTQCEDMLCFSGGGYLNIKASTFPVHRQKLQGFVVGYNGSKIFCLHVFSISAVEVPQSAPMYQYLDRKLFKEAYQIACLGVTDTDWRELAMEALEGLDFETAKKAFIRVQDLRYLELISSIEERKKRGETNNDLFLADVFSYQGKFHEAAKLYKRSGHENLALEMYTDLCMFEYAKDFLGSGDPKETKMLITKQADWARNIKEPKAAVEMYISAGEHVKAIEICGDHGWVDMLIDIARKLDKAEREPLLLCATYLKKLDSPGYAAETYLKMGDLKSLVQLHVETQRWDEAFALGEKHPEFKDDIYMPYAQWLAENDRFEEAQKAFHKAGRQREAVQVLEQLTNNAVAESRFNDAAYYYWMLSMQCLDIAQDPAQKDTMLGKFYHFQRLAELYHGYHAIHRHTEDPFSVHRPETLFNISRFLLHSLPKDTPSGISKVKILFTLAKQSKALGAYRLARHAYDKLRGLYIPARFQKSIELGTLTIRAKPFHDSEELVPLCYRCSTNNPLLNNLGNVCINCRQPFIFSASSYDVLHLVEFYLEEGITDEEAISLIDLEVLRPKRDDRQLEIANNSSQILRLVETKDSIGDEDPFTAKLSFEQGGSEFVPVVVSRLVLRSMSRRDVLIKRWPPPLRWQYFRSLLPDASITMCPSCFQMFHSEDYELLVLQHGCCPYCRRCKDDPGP
UniProt Q6UWB1, whole entry, looked up: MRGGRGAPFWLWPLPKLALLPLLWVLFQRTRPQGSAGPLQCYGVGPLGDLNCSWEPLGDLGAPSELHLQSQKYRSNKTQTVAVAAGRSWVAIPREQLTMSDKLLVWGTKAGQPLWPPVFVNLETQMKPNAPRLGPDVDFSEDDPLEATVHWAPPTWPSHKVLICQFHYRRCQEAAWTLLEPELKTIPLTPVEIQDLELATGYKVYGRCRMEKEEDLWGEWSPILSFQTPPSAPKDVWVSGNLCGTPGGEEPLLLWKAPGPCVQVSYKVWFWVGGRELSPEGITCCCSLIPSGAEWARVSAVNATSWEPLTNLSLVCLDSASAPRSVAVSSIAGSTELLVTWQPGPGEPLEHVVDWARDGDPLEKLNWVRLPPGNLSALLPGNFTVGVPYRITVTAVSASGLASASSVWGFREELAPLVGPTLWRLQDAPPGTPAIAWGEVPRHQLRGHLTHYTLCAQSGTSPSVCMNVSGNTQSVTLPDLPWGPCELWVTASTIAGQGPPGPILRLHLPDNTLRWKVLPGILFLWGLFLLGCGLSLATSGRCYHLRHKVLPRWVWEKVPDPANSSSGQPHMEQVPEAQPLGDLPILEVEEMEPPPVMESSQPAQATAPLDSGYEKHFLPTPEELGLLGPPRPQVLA

The list shows a part of the results.

Compound in the test: C1=CC=C(C=C1)C2=NC(=C(N2)C3=CC=NC=C3)C4=CC(=C(C=C4)Cl)O
The experiment in a line: log2 fold change, soluble protein after heating vs DMSO (PISA); higher = thermal stabilisation; K562 lysate, 10 uM; active = over 0.2 and 3.5 SD of the protein, either way, in both replicates (recomputed). The method, boiled down: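 Soluble protein was defined as the supernatant remaining after 21,000xg for 90 min, following pooling of heated aliquots and adjustment to 0.5% NP-40 at 4°C. Before that, crude K562 extract at 1 mg/mL protein in PBS pH 7.4 with 1 mM MgCl2 was treated with 10 μM compound for 30 min and heated for 3 min across 48°C-58°C. Quantification used TMTpro 16plex LC-MS/MS with channel sums equalised, and values are log-two fold changes in thermal stability relative to solvent controls from duplicates.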
As for ING1 (UniProt Q9UK53), the log2 fold change was inactive: -0.023.
On to HYDIN (UniProt Q4G0P3), for which the log2 fold change is active: 1.34.
Consider ING5 (UniProt Q8WYH8), for which the log2 fold change is inactive: 0.068.
As for HSPA8 (UniProt E9PN89), the figure is inactive: 0.082; as for IGFBP4 (UniProt P22692), inactive: -0.033; as for IGHV3-72, A0A4W8ZXM2, inactive: -0.044.
As for IFIT3 (UniProt O14879), the figure is inactive: 0.083; as for IMPDH2 (UniProt H0Y4R1), inactive: -0.155.
As for IFT57 (UniProt Q9NWB7), the figure is inactive: -0.082; as for ICMT (UniProt O60725), inactive: 0.039.
As for HYKK (UniProt A2RU49), the log2 fold change is inactive: 0.057.
As for IGKV3D-7, A0A0C4DH55, the figure is inactive: 0.444; as for HSPBAP1 (UniProt Q96EW2), inactive: -0.072; as for IGKC (UniProt P01834), inactive: 0.43.
The same measure for IFT22 (UniProt Q9H7X7): inactive: 0.181; for INO80E (UniProt Q8NBZ0): inactive: 0.166; for IMMP1L (UniProt Q96LU5): inactive: -0.007.
The same measure for IFT122 isoform 5 (UniProt Q9HBG6): inactive: -0.126; for HTD2 (UniProt P86397): inactive: -0.199.
In the case of IL27RA (UniProt Q6UWB1), the log2 fold change is inactive: 0.024.
